In PubChem BioAssay AID504444 (National Center for Advancing Translational Sciences (NCATS), 2011):
“And” between values parts separate entries of the source, which are not always exact repeats. Equal entries are not always repeated. In all, about 360,000 compounds went through this assay and about 7,500 (2.1%) were called active. The inconclusive results got no clear call from the source; some entries with a clear call stand among them for comparison. The call rests on the fitted dose curve; in most records, active means well fitted inhibition curve with a large enough effect; inconclusive means small, poorly fitted or top-dose-only effect, or effect the other way; inactive means flat fitted curve, though single readings scatter. Where the call is inconclusive, the potency comes from a doubtful curve fit.

Experiment: Nrf2 qHTS screen for inhibitors; further: nearly all actives have a fitted effect of over 60% in size
Settings: A549 ARE-Fluc reporter, luciferase luminescence, 18-24 h; series mostly up to 46 µM
How it was run: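 Reporter: ARE-Fluc in A549. Exposure: 18-24 h, 37 °C, 5% CO2, 5% FBS OPTI-MEM. Readouts: fluorescent cytotoxicity (CellTiter-Fluor), then luminescent Nrf2 signal after BugLite.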
Potency means the concentration at half of the fitted maximal effect.

SMILES	Potency
O=C(Nc1cccc(C(F)(F)F)c1)c1ccc(Cn2cc(Br)cn2)o1	inconclusive: 20.6 µM [falling, single point]
O=C(NCCC(=O)N1O[C@@H]2C=C[C@H]1C2)OCC1c2ccccc2-c2ccccc21	inactive
CCOC(=O)C1CCN(S(=O)(=O)c2cc(-c3cc(C)no3)ccc2C)CC1	inconclusive: 23.1 µM [activator, single point]
O=C(NCCc1ccccc1)C1CCCN(S(=O)(=O)c2cccc3nsnc23)C1 (centres undefined)	inconclusive: 32.6 µM [falling, single point]
CC(/C=N/n1c(COc2ccccc2)n[nH]c1=S)=C\c1ccccc1	inconclusive: 29.1 µM [falling, single point]
CCCS(=O)(=O)N1CCC(C(=O)NCCc2ccccc2)CC1	inconclusive: 18.4 µM [activator, single point]
CCOC(=O)c1sc2nc(C)nc(NCc3ccc(Cl)cc3)c2c1C	active: 18.4 µM
N#Cc1ccc(CSc2nnc(-c3c[nH]c4ccccc34)n2-c2ccccc2)cc1	inconclusive: 29.1 µM [falling, single point]
CC(=O)/C(=N\Nc1ccc(Cl)cc1Cl)Sc1cccc2cccnc12	inconclusive: 29.1 µM [falling, single point]
CC1CCN(CCNC(=O)c2ccc(Cn3c(SCc4ccccc4)nc4cccnc43)cc2)CC1	inactive
COc1ccc(CN(CC(O)COCc2ccccc2)S(=O)(=O)c2ccccc2Br)cc1OC (centres undefined)	inconclusive: 29.1 µM [falling, single point]
COc1ccc(NC(=S)Nc2cccc(S(=O)(=O)N3CCCCC3)c2)cc1	inconclusive: 18.4 µM [falling, single point]
Cc1ccc(-n2c(C)cc(/C([O-])=C(/C(=S)Nc3ccc(F)c(Cl)c3)[n+]3ccccc3)c2C)cc1	inconclusive: 32.6 µM [falling, single point]
O=c1[nH]c(=S)[nH]c2nc(-c3ccccc3)cnc12	inactive
O=c1[nH]c(CN2CCN(S(=O)(=O)c3cccs3)CC2)nc2c(Br)cc(Br)cc12	inconclusive: 29.1 µM [falling, single point]
COc1ccc(CNC(=O)C[C@H]2C[C@H](C(=O)N(C(C)C)C(C)C)[C@@]3(C)c4[nH]c5ccc(Cl)cc5c4CCN3C2=O)cc1OC	inconclusive: 29.1 µM [falling, single point]
Nc1nc(SCC(=O)Nc2ccc([N+](=O)[O-])cc2Br)n[nH]1	inconclusive: 11.6 µM [falling, partial curve]
CCOc1ccc(/C=C2\SC(=S)N(CCC(=O)O)C2=O)cc1	inconclusive: 11.6 µM [falling, partial curve, poor fit]
Cc1ccc(Nc2ncc3c(n2)CC(C)(C)CC3=O)cc1	inconclusive: 1.46 µM [activator, full curve, poor fit]
Cc1cc(NC(=O)CSc2nc3ccccc3c(=O)n2Cc2ccc(F)cc2)no1	inconclusive: 14.6 µM [falling, partial curve, poor fit]
COC(=O)c1cc2occc2n1Cc1ccc(Cl)cc1	inconclusive: 32.6 µM [falling, partial curve, poor fit]
O=[N+]([O-])c1ccc2ncnc(N3CCN(Cc4ccc5c(c4)OCO5)CC3)c2c1	active: 8.2 µM

Laid out differently: results already given.
Cc1ccc(Nc2ncc3c(n2)CC(C)(C)CC3=O)cc1
  Potency: inconclusive: 1.46 µM [activator, full curve, poor fit]
Cc1cc(NC(=O)CSc2nc3ccccc3c(=O)n2Cc2ccc(F)cc2)no1
  Potency: inconclusive: 14.6 µM [falling, partial curve, poor fit]
COC(=O)c1cc2occc2n1Cc1ccc(Cl)cc1
  Potency: inconclusive: 32.6 µM [falling, partial curve, poor fit]
O=[N+]([O-])c1ccc2ncnc(N3CCN(Cc4ccc5c(c4)OCO5)CC3)c2c1
  Potency: active: 8.2 µM

Further records

SMILES	Potency
Cc1ccc(-c2c3c(=O)n(C)c(=O)n(C)c3c3c(C(F)(F)F)nc4ccccc4n23)cc1	inactive
Cn1cc(C(=O)N2CCCCCC2)c(=O)c2cc(S(=O)(=O)N3CCCCC3)ccc21	inconclusive: 23.1 µM [falling, partial curve, poor fit]
O=C(NC(CO)(CO)CO)c1coc(=O)c(Br)c1	inconclusive: 18.4 µM [activator, single point]
CCOC(=O)c1ccc(S(=O)(=O)n2c(=O)oc3ccccc32)cc1	inactive
CCS(=O)(=O)N1CC(=O)N(c2cccc(C)c2C)C(C)(C(=O)NC2CCCCC2)C1 (centres undefined)	inconclusive: 29.1 µM [activator, single point]
CCOc1ccc(CCNc2nc3c(c(=O)n(C)c(=O)n3C)n2CC)cc1OCC	inconclusive: 10.3 µM [falling, partial curve]
CCOc1ccc(OCC)c(S(=O)(=O)NC2CC(C)(C)NC(C)(C)C2)c1	inconclusive: 10.3 µM [activator, partial curve, poor fit]
Oc1ccc(/C=N/Nc2nccnc2Cl)c(O)c1	inconclusive: 4.11 µM [falling, partial curve, poor fit]
CCCOC(=O)c1ccc(NC(=O)C2CCCO2)cc1 (centres undefined)	inactive
Cc1ccc(CCNc2nc3c(S(=O)(=O)c4ccc(C)cc4)nnn3c3ccsc23)cc1	inconclusive: 9.2 µM [falling, single point]
Cc1ccc(NC(=O)c2ccc([N+](=O)[O-])s2)cc1S(=O)(=O)N1CCOCC1	inconclusive: 23.1 µM [falling, single point]
Cn1c(=O)c2c(ncn2Cc2cccc(Cl)c2)n(C)c1=O	inconclusive: 20.6 µM [falling, partial curve]
CC(C)(C)Nc1nc(SCC(=O)Nc2ccccc2)nc(N2CCOCC2)n1	inconclusive: 36.6 µM [falling, partial curve, poor fit]
Cc1ccc(NC(=O)CN2CCc3cc4c(cc3C2)OCCCO4)cc1	inactive
Cc1ccc(S(=O)(=O)N/N=C/c2cc([N+](=O)[O-])ccc2O)cc1[N+](=O)[O-]	inconclusive: 32.6 µM [activator, partial curve, poor fit]
COc1ccc(C(=O)N/N=C(\c2ccccc2)c2ccccn2)cc1	active: 8.2 µM
CCc1sc(C(=O)Nc2ccc3c(c2)OCO3)cc1C	inconclusive: 1.46 µM [activator, full curve, poor fit]
COc1ccc(-c2nc3c(=O)n(C)c(=O)nc-3n(C)n2)cc1	active: 1.46 µM
COc1ccc(CCNc2nc(C)cc(C)c2C#N)cc1OC	inconclusive: 23.1 µM [falling, single point]
Cc1ccc2nc(-c3cccnc3)oc2c1	inconclusive: 9.2 µM [activator, partial curve] and inconclusive: 18.4 µM [activator, partial curve]
CCCN1C(=O)S/C(=C/c2ccc(N3CCOCC3)o2)C1=O	inconclusive: 3.26 µM [activator, partial curve, poor fit]
COc1ccccc1/C=N/NC(=O)Cn1cnc([N+](=O)[O-])n1	inconclusive: 9.2 µM [activator, partial curve, poor fit]

SMILES	Potency
CC1CN(c2ccc(C(=O)c3ccccc3C(=O)O)cc2[N+](=O)[O-])CC(C)O1 (centres undefined)	inconclusive: 32.6 µM [falling, single point]
COc1ccc(C[C@H](N)C(=O)N[C@H]2[C@@H](O)[C@H](n3cnc4c(N(C)C)ncnc43)O[C@@H]2CO)cc1	active: 1.46 µM
COc1cc(C(=O)NNC(=O)c2ccc(S(=O)(=O)N3CCCCC3)cc2)cc(OC)c1OC	inactive
Cc1ccc(C(=O)NCC(=O)OCC(=O)/C=C2\N(C)c3ccccc3C2(C)C)cc1C	inactive
CCN(CC)c1ccc(/C=C(\C#N)C(=O)NCc2ccccc2)cc1	inconclusive: 25.9 µM [falling, single point]
CC(C)Cc1nc(N2CCN(C(=O)c3ccccc3)CC2)c(C#N)c2c1CCC2	active: 23.1 µM
O=C(N=C1SC2CS(=O)(=O)CC2N1c1ccc(OC(F)(F)F)cc1)C1CC1 (centres undefined)	inconclusive: 0.517 µM [activator, full curve, poor fit]
Cc1nc(C)c(C(=O)OC(C)C(=O)Nc2ccc(F)cc2)s1 (centres undefined)	inconclusive: 29.1 µM [falling, single point]
COc1ccc(CCNC(=O)C2CC(=O)N(CCc3ccc(C)cc3)C2)cc1OC (centres undefined)	inactive
CC(C)OC(=O)c1cccc(C(=O)OCc2ccco2)n1	inactive
COc1ccc(-c2noc(N3CCC(C(=O)Nc4ccccc4OC)CC3)n2)cc1	inconclusive: 29.1 µM [falling, single point]
COc1ccc2nc(N3C(=O)CC(C(C)c4ccccc4)C3=O)sc2c1 (centres undefined)	inactive
CCOc1ccc(CN(C)C(=O)CN2C(=O)NC3(CCCc4ccccc43)C2=O)cc1 (centres undefined)	inconclusive: 29.1 µM [falling, single point]
CC(=O)Nc1ccc(N2CCN(c3ccc(C(F)(F)F)cn3)CC2)nc1	inconclusive: 6.51 µM [falling, full curve, poor fit]
COC(=O)c1sccc1NC(=O)CSc1ccccc1NS(=O)(=O)c1cc(Cl)ccc1Cl	inconclusive: 29.1 µM [falling, single point]
CSc1ccc(CCNC(=O)C(C)n2c(C)c3cnn(-c4ccccc4)c(=O)c3c2C)cc1 (centres undefined)	inconclusive: 29.1 µM [falling, single point]
Cc1ccc(NS(=O)(=O)c2ccc(CCC(=O)NC3CC3)cc2)cc1	inconclusive: 25.9 µM [falling, partial curve, poor fit]
CN1c2ccccc2Oc2nnc(N3CCN(Cc4ccccc4)CC3)cc21	inconclusive: 18.4 µM [activator, single point]
CCN(CC)CCNC(=O)c1ccc2c(=O)n(C3CCCC3)c(=S)[nH]c2c1	inconclusive: 18.4 µM [falling, single point]
O=C(CCN1C(=O)COc2ccccc21)NCCN1CCN(c2cccc(Cl)c2)CC1	inconclusive: 8.2 µM [falling, full curve, poor fit]
